The results in this text go back to publication PMC11301854.

Experiment [1] deals with Flag-NOTCH1 (human), from the p3xFlag-CMV-NOTCH1 plasmid (human) (UniProt P46531). Kind of experiment: co-IP; exogenous: lysates (IP lysis buffer) of transfected cells, immunoprecipitated with 3 ug anti-HA or anti-Flag at 4 °C overnight, Protein A/G magnetic beads, Western blot. On the technique in general: In western blotting, separated proteins are transferred to a membrane and probed.

Experiment [2] concerns the target NOTCH1, endogenous (human (endogenous in SW837, LOVO or 293T cells)) (UniProt P46531). Kind of experiment: co-IP; endogenous proteins: cell lysates (IP lysis buffer), immunoprecipitated with the indicated antibodies at 4 °C overnight, Protein A/G magnetic beads, Western blot.

Results are given in words; binding and its absence hold for the method and conditions named. In cells and extracts the contact can be indirect. Some entries that bind do so weakly or less than the wild type.

As to “Vasorin (VASN) with an added HA tag (from UniProt Q6EMK4 24-673)”, in experiment [1], the binding entry is “binds”.
For “Vasorin (VASN), endogenous (from UniProt Q6EMK4 24-673)”, the binding result in experiment [2] is “binds”.
